{"sequences": {"note": "The chains behind the UniProt entries cited, without tags or fusion partners. Where a name states a change or a piece, a line headed by the entry shows the natural chain unless it says otherwise.", "UniProt Q6ZT62": "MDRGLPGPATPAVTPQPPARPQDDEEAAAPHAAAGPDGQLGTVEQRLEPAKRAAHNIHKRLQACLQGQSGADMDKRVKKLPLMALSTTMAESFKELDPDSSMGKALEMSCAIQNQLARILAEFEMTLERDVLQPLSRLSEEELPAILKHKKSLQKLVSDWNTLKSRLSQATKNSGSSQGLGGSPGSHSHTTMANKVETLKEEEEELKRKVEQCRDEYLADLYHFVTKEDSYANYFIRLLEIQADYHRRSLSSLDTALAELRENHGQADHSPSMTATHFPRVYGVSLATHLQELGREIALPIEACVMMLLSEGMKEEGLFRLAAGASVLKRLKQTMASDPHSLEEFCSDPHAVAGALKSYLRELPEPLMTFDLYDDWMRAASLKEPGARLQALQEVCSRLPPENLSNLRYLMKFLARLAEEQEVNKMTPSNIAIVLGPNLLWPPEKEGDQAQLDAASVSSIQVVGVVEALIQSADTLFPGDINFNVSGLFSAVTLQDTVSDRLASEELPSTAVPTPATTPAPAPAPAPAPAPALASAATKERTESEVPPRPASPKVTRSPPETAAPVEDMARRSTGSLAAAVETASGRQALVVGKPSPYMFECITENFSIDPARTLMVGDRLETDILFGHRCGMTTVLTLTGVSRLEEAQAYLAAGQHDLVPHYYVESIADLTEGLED", "UniProt Q9NR09, whole entry, looked up": "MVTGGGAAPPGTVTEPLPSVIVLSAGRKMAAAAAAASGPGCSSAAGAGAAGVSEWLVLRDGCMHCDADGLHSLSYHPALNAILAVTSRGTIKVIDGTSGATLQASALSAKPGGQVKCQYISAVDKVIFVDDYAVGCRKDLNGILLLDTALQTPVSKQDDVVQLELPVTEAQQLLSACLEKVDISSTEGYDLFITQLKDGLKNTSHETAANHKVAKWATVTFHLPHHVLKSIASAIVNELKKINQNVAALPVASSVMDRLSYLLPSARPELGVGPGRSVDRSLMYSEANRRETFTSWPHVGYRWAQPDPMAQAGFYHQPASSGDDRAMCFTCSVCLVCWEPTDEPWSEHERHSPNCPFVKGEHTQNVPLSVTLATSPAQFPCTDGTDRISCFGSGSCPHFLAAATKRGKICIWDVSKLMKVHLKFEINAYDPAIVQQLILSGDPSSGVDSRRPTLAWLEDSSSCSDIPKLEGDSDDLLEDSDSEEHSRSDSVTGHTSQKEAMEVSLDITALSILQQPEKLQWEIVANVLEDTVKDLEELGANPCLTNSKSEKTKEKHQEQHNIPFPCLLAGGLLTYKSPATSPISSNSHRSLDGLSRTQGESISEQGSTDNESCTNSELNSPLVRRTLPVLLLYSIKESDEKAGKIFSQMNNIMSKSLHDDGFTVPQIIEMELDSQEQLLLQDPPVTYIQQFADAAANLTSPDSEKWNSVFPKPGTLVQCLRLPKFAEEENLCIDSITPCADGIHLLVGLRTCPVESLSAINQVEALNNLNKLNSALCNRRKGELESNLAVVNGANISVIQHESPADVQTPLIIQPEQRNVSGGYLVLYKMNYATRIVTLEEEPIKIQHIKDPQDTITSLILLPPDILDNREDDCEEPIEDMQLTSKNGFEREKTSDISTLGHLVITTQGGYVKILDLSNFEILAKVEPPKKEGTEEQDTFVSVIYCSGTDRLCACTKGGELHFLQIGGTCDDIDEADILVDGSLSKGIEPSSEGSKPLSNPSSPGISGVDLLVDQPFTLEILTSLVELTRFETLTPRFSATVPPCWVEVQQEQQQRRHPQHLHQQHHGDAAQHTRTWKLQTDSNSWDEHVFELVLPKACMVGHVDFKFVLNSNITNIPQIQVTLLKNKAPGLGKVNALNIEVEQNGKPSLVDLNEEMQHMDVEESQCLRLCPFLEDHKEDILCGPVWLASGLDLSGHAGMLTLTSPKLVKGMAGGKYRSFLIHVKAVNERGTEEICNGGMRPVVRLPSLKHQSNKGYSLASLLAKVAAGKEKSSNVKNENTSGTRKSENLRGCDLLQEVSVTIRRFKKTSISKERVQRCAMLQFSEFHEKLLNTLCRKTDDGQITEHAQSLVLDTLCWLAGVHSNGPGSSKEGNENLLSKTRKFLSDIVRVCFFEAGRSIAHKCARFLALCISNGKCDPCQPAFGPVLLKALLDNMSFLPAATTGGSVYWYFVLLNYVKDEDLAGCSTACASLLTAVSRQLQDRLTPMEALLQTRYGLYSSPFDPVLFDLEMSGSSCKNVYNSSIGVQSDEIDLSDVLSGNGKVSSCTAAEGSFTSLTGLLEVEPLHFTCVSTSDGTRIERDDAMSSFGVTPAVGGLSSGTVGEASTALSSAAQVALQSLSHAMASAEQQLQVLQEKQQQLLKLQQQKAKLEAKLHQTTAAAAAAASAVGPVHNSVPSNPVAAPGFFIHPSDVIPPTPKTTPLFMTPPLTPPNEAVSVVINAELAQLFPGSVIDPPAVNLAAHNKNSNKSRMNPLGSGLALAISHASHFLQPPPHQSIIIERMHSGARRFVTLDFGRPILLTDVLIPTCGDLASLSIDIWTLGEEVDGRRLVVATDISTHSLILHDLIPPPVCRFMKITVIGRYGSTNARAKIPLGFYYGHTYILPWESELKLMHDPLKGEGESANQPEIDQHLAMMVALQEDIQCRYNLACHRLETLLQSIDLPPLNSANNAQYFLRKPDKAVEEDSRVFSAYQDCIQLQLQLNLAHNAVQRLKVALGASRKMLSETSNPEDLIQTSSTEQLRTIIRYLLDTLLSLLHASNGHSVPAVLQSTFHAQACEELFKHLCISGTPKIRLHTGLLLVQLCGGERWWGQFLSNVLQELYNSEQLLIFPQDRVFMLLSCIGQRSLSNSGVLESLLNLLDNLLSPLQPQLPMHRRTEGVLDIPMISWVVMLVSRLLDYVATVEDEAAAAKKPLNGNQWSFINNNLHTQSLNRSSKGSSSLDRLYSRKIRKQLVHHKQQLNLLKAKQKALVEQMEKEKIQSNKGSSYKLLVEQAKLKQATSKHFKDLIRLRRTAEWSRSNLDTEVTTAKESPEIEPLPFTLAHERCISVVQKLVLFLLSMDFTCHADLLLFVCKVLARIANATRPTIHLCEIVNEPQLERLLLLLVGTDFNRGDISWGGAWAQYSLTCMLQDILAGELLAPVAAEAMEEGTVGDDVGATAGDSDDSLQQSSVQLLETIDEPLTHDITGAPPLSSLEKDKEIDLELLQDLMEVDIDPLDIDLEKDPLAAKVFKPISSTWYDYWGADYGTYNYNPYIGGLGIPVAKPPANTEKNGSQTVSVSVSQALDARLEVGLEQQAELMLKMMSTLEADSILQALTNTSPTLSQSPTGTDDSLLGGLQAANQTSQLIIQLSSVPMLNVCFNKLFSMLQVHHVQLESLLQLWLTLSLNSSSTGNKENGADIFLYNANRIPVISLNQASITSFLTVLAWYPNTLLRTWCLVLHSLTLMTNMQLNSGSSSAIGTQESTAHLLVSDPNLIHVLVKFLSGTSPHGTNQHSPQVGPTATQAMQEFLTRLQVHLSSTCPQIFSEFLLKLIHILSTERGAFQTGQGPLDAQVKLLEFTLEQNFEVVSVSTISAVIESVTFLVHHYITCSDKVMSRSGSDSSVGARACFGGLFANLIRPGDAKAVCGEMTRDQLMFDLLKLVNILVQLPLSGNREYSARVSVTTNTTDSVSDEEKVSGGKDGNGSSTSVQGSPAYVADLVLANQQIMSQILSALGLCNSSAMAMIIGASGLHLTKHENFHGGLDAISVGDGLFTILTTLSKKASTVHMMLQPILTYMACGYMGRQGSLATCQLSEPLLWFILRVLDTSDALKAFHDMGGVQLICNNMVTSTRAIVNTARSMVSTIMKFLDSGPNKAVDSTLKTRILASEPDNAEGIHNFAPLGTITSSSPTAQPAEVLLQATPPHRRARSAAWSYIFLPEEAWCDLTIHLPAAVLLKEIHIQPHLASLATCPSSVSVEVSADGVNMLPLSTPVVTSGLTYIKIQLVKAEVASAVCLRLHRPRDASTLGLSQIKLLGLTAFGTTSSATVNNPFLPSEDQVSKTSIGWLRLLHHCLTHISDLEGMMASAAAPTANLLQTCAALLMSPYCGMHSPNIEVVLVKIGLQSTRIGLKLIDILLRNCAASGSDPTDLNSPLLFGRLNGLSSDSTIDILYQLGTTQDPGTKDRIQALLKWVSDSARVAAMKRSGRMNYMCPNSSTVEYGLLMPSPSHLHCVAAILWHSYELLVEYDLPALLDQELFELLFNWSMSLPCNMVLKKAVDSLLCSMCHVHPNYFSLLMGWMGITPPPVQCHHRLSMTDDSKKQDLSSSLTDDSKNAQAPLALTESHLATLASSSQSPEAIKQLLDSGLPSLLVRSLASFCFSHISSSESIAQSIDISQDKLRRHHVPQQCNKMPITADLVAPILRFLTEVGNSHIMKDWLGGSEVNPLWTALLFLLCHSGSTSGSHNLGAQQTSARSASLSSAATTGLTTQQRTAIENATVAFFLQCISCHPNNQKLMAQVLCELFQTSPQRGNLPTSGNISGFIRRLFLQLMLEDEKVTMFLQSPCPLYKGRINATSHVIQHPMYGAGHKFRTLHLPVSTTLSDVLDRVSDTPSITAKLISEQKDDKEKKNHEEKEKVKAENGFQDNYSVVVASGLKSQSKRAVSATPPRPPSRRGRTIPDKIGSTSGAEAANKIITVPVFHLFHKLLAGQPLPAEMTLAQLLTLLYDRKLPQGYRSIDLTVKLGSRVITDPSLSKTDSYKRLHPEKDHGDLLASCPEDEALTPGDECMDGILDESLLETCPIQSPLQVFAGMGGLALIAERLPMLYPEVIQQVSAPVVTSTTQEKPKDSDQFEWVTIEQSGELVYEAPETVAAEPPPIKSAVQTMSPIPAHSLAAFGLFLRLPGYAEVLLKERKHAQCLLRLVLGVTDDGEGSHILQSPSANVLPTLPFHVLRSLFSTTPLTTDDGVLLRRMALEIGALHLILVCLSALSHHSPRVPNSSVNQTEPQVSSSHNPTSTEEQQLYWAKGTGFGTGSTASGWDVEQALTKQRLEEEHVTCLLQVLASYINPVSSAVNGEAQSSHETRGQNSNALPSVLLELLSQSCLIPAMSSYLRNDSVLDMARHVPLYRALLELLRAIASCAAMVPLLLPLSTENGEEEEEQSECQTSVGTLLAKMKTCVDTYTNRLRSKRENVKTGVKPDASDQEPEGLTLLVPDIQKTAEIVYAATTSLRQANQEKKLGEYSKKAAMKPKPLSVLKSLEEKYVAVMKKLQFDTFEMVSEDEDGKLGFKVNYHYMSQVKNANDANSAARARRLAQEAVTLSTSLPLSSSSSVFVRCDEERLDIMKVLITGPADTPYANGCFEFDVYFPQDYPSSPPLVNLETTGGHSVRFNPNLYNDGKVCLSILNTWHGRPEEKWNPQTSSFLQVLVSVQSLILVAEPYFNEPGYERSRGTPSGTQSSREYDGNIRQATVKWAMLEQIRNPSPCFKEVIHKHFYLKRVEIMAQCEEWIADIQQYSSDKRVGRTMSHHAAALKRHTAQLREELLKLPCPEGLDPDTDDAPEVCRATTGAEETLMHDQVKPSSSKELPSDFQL", "UniProt P61769, whole entry, looked up": "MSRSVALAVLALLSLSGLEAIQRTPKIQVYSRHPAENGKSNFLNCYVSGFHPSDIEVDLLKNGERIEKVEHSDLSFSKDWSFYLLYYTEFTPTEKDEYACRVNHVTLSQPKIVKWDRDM", "UniProt P21953": "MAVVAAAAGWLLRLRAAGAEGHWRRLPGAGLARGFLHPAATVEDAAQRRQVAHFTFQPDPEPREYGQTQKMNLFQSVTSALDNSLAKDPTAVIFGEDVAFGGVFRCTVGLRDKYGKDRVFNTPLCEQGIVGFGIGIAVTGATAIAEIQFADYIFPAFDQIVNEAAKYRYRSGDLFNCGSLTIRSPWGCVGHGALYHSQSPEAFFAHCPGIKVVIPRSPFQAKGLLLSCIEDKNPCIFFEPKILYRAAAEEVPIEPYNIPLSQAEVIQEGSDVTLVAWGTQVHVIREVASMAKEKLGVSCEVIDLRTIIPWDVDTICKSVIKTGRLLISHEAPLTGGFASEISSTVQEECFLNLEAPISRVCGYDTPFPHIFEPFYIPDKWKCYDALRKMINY", "UniProt Q99933": "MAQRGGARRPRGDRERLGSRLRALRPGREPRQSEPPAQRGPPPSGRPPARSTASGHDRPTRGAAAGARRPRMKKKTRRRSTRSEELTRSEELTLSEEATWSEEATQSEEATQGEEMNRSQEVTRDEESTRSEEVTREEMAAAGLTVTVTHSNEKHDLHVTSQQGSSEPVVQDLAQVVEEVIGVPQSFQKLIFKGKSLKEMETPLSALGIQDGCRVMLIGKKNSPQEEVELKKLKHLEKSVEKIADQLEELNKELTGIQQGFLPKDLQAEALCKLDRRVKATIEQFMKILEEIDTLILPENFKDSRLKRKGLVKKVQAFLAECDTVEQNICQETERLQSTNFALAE"}, "source": "the supplement of paper PMC12067093", "about": "“Discovery and optimisation of a covalent ligand for TRIM25 and its application to targeted protein ubiquitination” (Chemical Science, 2025)", "note": "The list shows a part of the results.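 Also: competitive profiling in live THP-1 cells: cysteine peptides tagged with an iodoacetamide desthiobiotin (IA-DTB) probe, intensity after compound treatment relative to DMSO-treated cells.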"}
{"compound": "Cc1cc(ccc1-c1ccccc1)C(=O)N1CCCN(CC1)C(=O)CCl [compound 10]", "assay": "probe-labelled cysteine peptide fold change vs DMSO (competition) (log2 fold change); higher = less target engagement (more negative = stronger competition)", "conditions": "10 µM; THP-1; incubation time: 4 h"}
{"target": "AVEN_Q9NQS1_169_EWDSEASCPK (UniProt Q9NQS1)", "probe-labelled cysteine peptide fold change": -0.857}
{"target": "BLM_P54132_704_SLCYQLPACVSPGVTVVISPLR (UniProt P54132)", "probe-labelled cysteine peptide fold change": -0.311}
{"target": "BPTF_Q12830_506_VQLAELIDCLDK (UniProt Q12830)", "probe-labelled cysteine peptide fold change": 0.0717}
{"target": "BARGIN_Q6ZT62_213_KVEQCRDEYLADLYHFVTK (UniProt Q6ZT62)", "probe-labelled cysteine peptide fold change": 0.0523}
{"target": "BIRC6_Q9NR09_543_DLEELGANPCLTNSK (UniProt Q9NR09)", "probe-labelled cysteine peptide fold change": -0.334}
{"target": "B4GALT3_O60512_190+209_EALRDEEWDCLFLHDVDLLPENDHNLYVCDPR (UniProt O60512)", "probe-labelled cysteine peptide fold change": -0.199}
{"target": "AURKA_O14965_33_RVLVTQQFPCQNPLPVNSGQAQR (UniProt O14965)", "probe-labelled cysteine peptide fold change": -0.134}
{"target": "BLVRA_P53004_204_MTVCLETEKK (UniProt P53004)", "probe-labelled cysteine peptide fold change": 0.15}
{"target": "ATXN7L3_Q14CW9_226_CPQHTDEQR (UniProt Q14CW9)", "probe-labelled cysteine peptide fold change": -0.319}
{"target": "B2M_P61769_45_SNFLNCYVSGFHPSDIEVDLLK (UniProt P61769)", "probe-labelled cysteine peptide fold change": -0.0551}
{"target": "BAZ1B_Q9UIG0_1231_AFHLFCLRPALYEVPDGEWQCPACQPATAR (UniProt Q9UIG0)", "probe-labelled cysteine peptide fold change": -0.0528}
{"target": "BPTF_Q12830_940_AVQMCSKPR (UniProt Q12830)", "probe-labelled cysteine peptide fold change": -0.098}
{"target": "BCKDHB_P21953_228_GLLLSCIEDK (UniProt P21953)", "probe-labelled cysteine peptide fold change": 0.0863}
{"target": "BOD1L1_Q8NFC6_285_SEEFSDLPCPVEEIK (UniProt Q8NFC6)", "probe-labelled cysteine peptide fold change": -0.0744}
{"target": "BAG1_Q99933_330_VQAFLAECDTVEQNICQETER (UniProt Q99933)", "probe-labelled cysteine peptide fold change": -0.213}
{"target": "BLMH_Q13867_164_CFPESYTTEATR (UniProt Q13867)", "probe-labelled cysteine peptide fold change": -0.0235}
{"target": "BIRC6_Q9NR09_2910_AVCGEMTR (UniProt Q9NR09)", "probe-labelled cysteine peptide fold change": 0.172}
{"target": "BAZ1B_Q9UIG0_1096_DFGECVIALQASVIK (UniProt Q9UIG0)", "probe-labelled cysteine peptide fold change": 0.0267}
{"target": "BCOR_Q6W2J9_1525_HLLEYGADVNCSAQDGTRPLHDAVENDHLEIVR (UniProt Q6W2J9)", "probe-labelled cysteine peptide fold change": -0.0362}
{"target": "BAZ1A_Q9NRL2_586_RGGFDATDDACMELR (UniProt Q9NRL2)", "probe-labelled cysteine peptide fold change": -0.0388}
{"target": "BARGIN_Q6ZT62_110_ALEMSCAIQNQLAR (UniProt Q6ZT62)", "probe-labelled cysteine peptide fold change": 0.17}
{"target": "ATXN2_Q99700_852_DSFIENSSSNCTSGSSKPNSPSISPSILSNTEHK (UniProt Q99700)", "probe-labelled cysteine peptide fold change": -0.189}
{"target": "BIRC6_Q9NR09_4601_CDEERLDIMK (UniProt Q9NR09)", "probe-labelled cysteine peptide fold change": 0.0642}
{"target": "AZU1_P20160_207_RGGICNGDGGTPLVCEGLAHGVASFSLGPCGR (UniProt P20160)", "probe-labelled cysteine peptide fold change": 0.168}
{"target": "BDH2_Q9BUT1_93_LDVLFNVAGFVHHGTVLDCEEK (UniProt Q9BUT1)", "probe-labelled cysteine peptide fold change": -0.102}
{"target": "BARGIN_Q6ZT62_631_CGMTTVLTLTGVSR (UniProt Q6ZT62)", "probe-labelled cysteine peptide fold change": 0.0702}
{"target": "BCAS3_Q9H6U6_442_GTSHVFPINPYGGQPCVR (UniProt Q9H6U6)", "probe-labelled cysteine peptide fold change": 0.16}
{"target": "BCR_P11274_395_HCPVVVSEATIVGVR (UniProt P11274)", "probe-labelled cysteine peptide fold change": -0.078}
{"target": "BOP1_Q14137_532_ICHGKPVTQVTWHGR (UniProt Q14137)", "probe-labelled cysteine peptide fold change": -0.0256}
{"target": "BOP1_Q14137_108_TTEEQVQASTPCPR (UniProt Q14137)", "probe-labelled cysteine peptide fold change": -0.185}
{"target": "BAZ1A_Q9NRL2_970_SSNAYDPSQMCAEK (UniProt Q9NRL2)", "probe-labelled cysteine peptide fold change": -0.0997}
{"target": "BCKDK_O14874_222_MLATHHLALHEDKPDFVGIICTR (UniProt O14874)", "probe-labelled cysteine peptide fold change": 0.108}
{"target": "BCKDHB_P21953_361_VCGYDTPFPHIFEPFYIPDK (UniProt P21953)", "probe-labelled cysteine peptide fold change": -0.0395}
{"target": "BAG1_Q99933_213_EMETPLSALGIQDGCR (UniProt Q99933)", "probe-labelled cysteine peptide fold change": 0.036}
{"target": "BAG5_Q9UL15_360_LFACEEHPSHK (UniProt Q9UL15)", "probe-labelled cysteine peptide fold change": -0.0428}
{"target": "BPNT1_O95861_42_TCATDLQTK (UniProt O95861)", "probe-labelled cysteine peptide fold change": -0.365}
{"target": "BCKDK_O14874_118_CLPFIIGCNPTILHVHELYIR (UniProt O14874)", "probe-labelled cysteine peptide fold change": 0.0121}
{"target": "BAZ2A_Q9UIF9_917_AALHDPGFPSYCQSLK (UniProt Q9UIF9)", "probe-labelled cysteine peptide fold change": 0.0356}
